Structures were worked out from names or drawings and are uncertain.
Molecular target: human recombinant CyPA (Homo sapiens, UniProt P62937)
Assay: Semiautomated microtiter plate assay of rotamase activity inhibition
Conditions: read-out: IC50 (rotamase inhibition, modified plate reader assay), 30 minute preincubation at 4° C.

The chains behind the UniProt entries cited, without tags or fusion partners.
UniProt P62937, whole entry: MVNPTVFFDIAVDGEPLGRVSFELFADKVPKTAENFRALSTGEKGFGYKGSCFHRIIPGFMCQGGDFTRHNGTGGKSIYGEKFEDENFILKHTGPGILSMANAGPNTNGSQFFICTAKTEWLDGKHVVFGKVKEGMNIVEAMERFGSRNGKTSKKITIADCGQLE

Structure (SMILES): O=C(Nc1cccc(N(S(=O)(=O)c2cc(Cl)cc(Cl)c2)S(=O)(=O)c2cc(Cl)cc(Cl)c2)c1)NS(=O)(=O)c1cc(Cl)cc(Cl)c1
- IC50: 80 nM

— patent US20020127605A1 (priority 2000, published 2002)
